Measured values from PubChem BioAssay AID504834 (National Center for Advancing Translational Sciences (NCATS), 2011).
The campaign covered roughly 320,000 compounds. About 22,000 (6.9%) were called active. The shares of active, inactive and inconclusive entries below differ from those in the screen. Calls come from the whole dose curve; as a rule, active = well fitted inhibition curve with a large enough effect; inconclusive = small, poorly fitted or top-dose-only effect, or another doubt; inactive = no such curve, though single readings can be large or run the other way. Where the call is inconclusive, the potency comes from a doubtful curve fit.
% is set by controls: 0 for no effect and ±100 for the full control effect; potency is the fitted concentration of half-maximal effect.

Assay: Primary qHTS for delayed death inhibitors of the malarial parasite plastid, 96 hour incubation
Details: P. falciparum luciferase reporter growth; series mostly up to 28.7 µM; activity change, negative = inhibition: at the top concentration
Procedure, shortened: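 Delayed-death screen, second-generation endpoint: infected erythrocytes, 2% hematocrit, 0.05% parasitemia final; 96 hours at 37 C, 5% CO2; luciferase detection reagent; luminescence decrease equals reduced growth.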
With CC(=O)Nc1nc(COc2ccccc2)cs1 the Potency was inconclusive: 13.1 µM [inhibitor, single point]. With O=c1c2ccccc2nc(/C=C/c2ccc(O)cc2)n1-c1cccc(O)c1 the Potency was inconclusive: 10.4 µM [inhibitor, single point]. In the case of COc1ccc(OC)c(NS(=O)(=O)c2c(C)nc3sccn3c2=O)c1, the “activity change, negative = inhibition” value is reported as inactive: 26.4%. In the case of CCOc1ccc(C2c3cc(OC)c(OC)cc3CC(=O)N2c2ccc(OC)cc2)cc1 (configuration not stated), the Potency is reported as inconclusive: 18.5 µM [inhibitor, single point]. For COC(=O)C1=C(c2ccc(C(C)=O)cc2)C[C@@H]2CC[C@H]1N2C(=O)NCCOc1ccccc1Cl, the Potency was inconclusive: 2.33 µM [inhibitor, full curve]. With CN(C(=O)CSc1nnc(-c2cccnc2)n1-c1ccccc1F)C1CCS(=O)(=O)C1 (configuration not stated) the “activity change, negative = inhibition” value was inactive: 20.7%. For O=C(NCCCN1CCOCC1)C1CCN(S(=O)(=O)c2cccc(Cl)c2Cl)CC1, the Potency was inconclusive: 14.7 µM [inhibitor, partial curve, poor fit]. For C[C@H](NC(=O)c1nc[nH]c1C(=O)N1CCc2ccccc2C1)c1ccccc1, the Potency was inconclusive: 10.4 µM [inhibitor, single point]. In the case of COC(=O)C1CCN(C(=O)c2cc(S(=O)(=O)N3CCCCC3)ccc2Cl)CC1, the Potency is reported as inconclusive: 18.5 µM [inhibitor, single point]. For CNC(=O)c1ccc(NC(=O)c2cccc(C(F)(F)F)c2)cc1, the “activity change, negative = inhibition” value was inactive: 6.47%. For COCCNC(=S)N/N=C(\C)CCc1ccc2c(c1)OCO2, the Potency was inconclusive: 0.465 µM [inhibitor, full curve, poor fit]. With COc1cc(N)ccc1-c1cc2ccccc2oc1=O the Potency was inconclusive: 16.5 µM [inhibitor, single point]. With CCOC(=O)C1(C(F)(F)F)N=C(C(F)(F)F)Nc2cc(C)c(C)cc21 (configuration not stated) the Potency was inconclusive: 13.1 µM [inhibitor, partial curve]. In the case of Cc1cc(C(=O)NCCc2ccc(Cl)cc2)n(-c2ccccc2)n1, the “activity change, negative = inhibition” value is reported as inactive: 2.42%. With CCOC(=O)c1c(-c2cccc(C)c2)csc1NC(=O)c1c(-c2ccccc2)noc1C the Potency was inconclusive: 18.5 µM [inhibitor, single point]. In the case of CC(C)NC(=O)Cn1cc(C#N)c2cc(Br)ccc21, the Potency is reported as inconclusive: 18.5 µM [inhibitor, single point]. With O=C(/C=C/c1c(Cl)nc2ccccn12)Nc1ccc(F)cc1 the Potency was inconclusive: 2.08 µM [inhibitor, full curve, poor fit]. For O=C(NCCN1CCOCC1)c1cccc(S(=O)(=O)Nc2cc(Cl)ccc2Cl)c1, the “activity change, negative = inhibition” value was inactive: -14.4%. With Cc1ccc2nc(-c3ccccc3)cc(C(=O)NNC(=O)c3csc(N4CCOCC4)n3)c2c1 the Potency was inconclusive: 11.7 µM [inhibitor, single point]. With CC(C)(C)c1ccc(OCC(=O)NN2Cc3ccccc3C2=N)cc1 the Potency was inconclusive: 11.7 µM [inhibitor, single point]. With Cc1ccc(-n2[nH]c(C)c(C=Nc3ccc(Br)cn3)c2=O)cc1 the Potency was inconclusive: 4.15 µM [inhibitor, partial curve, poor fit]. With CN1CCN(c2ccc(NC(=S)NC(=O)c3cccc4c(Br)cccc34)cc2)CC1 the “activity change, negative = inhibition” value was inactive: -35.2%. With CSCC(=O)N1CCc2ccc(NC(=O)c3ccccc3Cl)cc2C1 the Potency was inconclusive: 18.5 µM [inhibitor, single point]. For CCCC(=O)Nc1ccc(NC(=O)c2cccc(OC)c2)cn1, the Potency was inconclusive: 9.28 µM [inhibitor, partial curve]. For CC(C)(Cc1cc(CC(C)(C)C(=O)O)cc(C(C)(C)C)c1)C(=O)O, the Potency was inconclusive: 18.5 µM [inhibitor, single point]. In the case of CCOC(=O)c1ccc(S(=O)(=O)NNC(=O)c2cccc(N(C)C)c2)cc1, the “activity change, negative = inhibition” value is reported as inactive: 71.4%. With O=C(Nc1ccc(S(=O)(=O)N2CCOCC2)cc1)c1ccc([N+](=O)[O-])cc1Cl the Potency was inconclusive: 18.5 µM [inhibitor, single point]. With CN(CC(=O)Nc1ccc(Cl)c(C(F)(F)F)c1)C(=O)c1ccc2c(c1)OCCO2 the “activity change, negative = inhibition” value was inactive: 5.71%. For CC1CCC2C(=O)N(c3cccc(C(=O)Nc4ccc(F)cc4)c3)C(=O)C2C1 (configuration not stated), the “activity change, negative = inhibition” value was inactive: 15.9%. For CCCc1ccc(S(=O)(=O)NCC2CCCN2CC)cc1 (configuration not stated), the “activity change, negative = inhibition” value was inactive: 28.3%. For CC(=O)Nc1nc2ccccc2n1Cc1ccccc1, the Potency was active: 11.7 µM. With NC(=O)c1cc(NC(=O)CCNS(=O)(=O)c2cccc(C(F)(F)F)c2)cc(C(N)=O)c1 the “activity change, negative = inhibition” value was inactive: 46.9%. With Cc1noc(C)c1S(=O)(=O)N(CC(=O)NCc1ccccc1)c1ccc(C(C)C)cc1 the Potency was inconclusive: 5.22 µM [inhibitor, partial curve, poor fit]. In the case of Cc1ccc2c(c1)N(CC(=O)NC(C)CCc1ccccc1)C(=O)c1cccnc1O2 (configuration not stated), the “activity change, negative = inhibition” value is reported as inactive: 33.7%. With O=C(NCC1CCCO1)c1ccc2c(c1)N(Cc1ccccc1)CCS2 (configuration not stated) the Potency was inconclusive: 16.5 µM [inhibitor, partial curve, poor fit]. With O=C(CN1CCN(c2ccccn2)CC1)Nc1ccc(Cl)c(C(F)(F)F)c1 the “activity change, negative = inhibition” value was inactive: 24.6%. With Clc1ccc(C2NCCc3sccc32)cc1 (configuration not stated) the “activity change, negative = inhibition” value was inactive: 24.1%. For O=C(O)c1cccc(-c2nc3ccccc3[nH]2)c1, the Potency was active: 2.33 µM. In the case of Fc1ccccc1COc1ccc(Br)cc1CNCc1ccncc1, the Potency is reported as active: 11.7 µM. In the case of O=C(Cc1ccccc1)N1CCNCC1, the Potency is reported as inconclusive: 4.15 µM [inhibitor, partial curve, poor fit]. With CC(C)(C)Cc1nc2ccccc2n1CCc1ccccc1 the “activity change, negative = inhibition” value was inactive: 28.8%. With Cc1ccc(-c2ccc(CCC(=O)O)n2NC(N)=S)cc1 the “activity change, negative = inhibition” value was inactive: 33.2%. In the case of CCOC(=O)C1=NNC(C(=O)c2ccccc2)C1c1ccc(C)cc1 (configuration not stated), the Potency is reported as active: 2.08 µM. For O=C(CCN1N=C(c2ccccc2)CCC1=O)NCC1COc2ccccc2O1 (configuration not stated), the “activity change, negative = inhibition” value was inactive: -22.1%. In the case of Cc1cc(/C=C(\C#N)C(=O)NCCc2c[nH]c3ccccc23)c(C)n1C, the Potency is reported as inconclusive: 14.7 µM [inhibitor, single point]. For O=C(Cn1c(-c2cncs2)nc2ccccc21)NCCc1ccccc1, the Potency was inconclusive: 0.415 µM [inhibitor, partial curve, poor fit]. In the case of CC(=O)Nc1c(O)[nH]c2ccccc12, the Potency is reported as inconclusive: 10.4 µM [inhibitor, single point]. For COc1ccc(NC(=O)c2ccc(CNS(=O)(=O)c3cccc(OC)c3)cc2)cc1, the Potency was inconclusive: 0.0026 µM [inhibitor, full curve, poor fit]. In the case of CCOc1cccc(OCCNC2CCCC2)c1, the Potency is reported as inconclusive: 4.65 µM [inhibitor, single point]. In the case of Cc1ccc(NC(=O)CSc2nnc3ccccn23)cc1S(=O)(=O)N1CCOCC1, the Potency is reported as inconclusive: 2.62 µM [inhibitor, full curve, poor fit]. For COc1ccc(NS(=O)(=O)c2ccc(N3CCOCC3)c(NC(=O)C(C)C)c2)cc1, the “activity change, negative = inhibition” value was inactive: 8.53%. For C/C(=N\NC(=O)c1ccccc1O)c1cccs1, the “activity change, negative = inhibition” value was inactive: 108%. For O=C(C[n+]1ccccc1)N/N=C/c1cc(Br)cc(Br)c1O, the Potency was inconclusive: 1.31 µM [inhibitor, full curve]. In the case of CCN(CC(=O)NCc1ccc(Cl)cc1)C(=O)CSc1cc(C)ccc1C, the “activity change, negative = inhibition” value is reported as inactive: 3.71%. For CCCCCCCNC(=O)C1(CC2CC(c3cccc(Br)c3)=NO2)CCN(C(=O)c2cc(OCC)c(OCC)c(OCC)c2)CC1 (configuration not stated), the Potency was active: 0.329 µM. In the case of Cc1cc2oc(=O)cc(CNc3ccccc3F)c2cc1O, the Potency is reported as inconclusive: 5.86 µM [inhibitor, partial curve, poor fit]. For O=C(Nc1ccc2c(c1)OCCO2)C1CC(c2ccccc2Cl)=NO1 (configuration not stated), the “activity change, negative = inhibition” value was inactive: 185%. In the case of CN1C(=O)C(C)(C)N(C(=O)c2cccc([N+](=O)[O-])c2)c2ccccc21, the Potency is reported as inconclusive: 13.1 µM [inhibitor, partial curve]. In the case of COCCn1c(SCC(=O)Nc2ccccc2OC)nc2c(oc3ccccc32)c1=O, the “activity change, negative = inhibition” value is reported as inactive: -1.6%. In the case of Cc1cccc(NC(=O)CCS(=O)(=O)c2cc3c(cc2Cl)NC(=O)CO3)c1, the “activity change, negative = inhibition” value is reported as inactive: 36.3%. With COc1cccc(C(=O)CSc2nc3ccccc3n2CC(=O)N2CCOCC2)c1 the Potency was inconclusive: 18.5 µM [inhibitor, single point]. For COc1ccc(C(=O)Oc2c(C)occc2=O)cc1OC, the “activity change, negative = inhibition” value was inactive: 49.8%. For O=C(NCc1ccc2c(c1)OCO2)C12CN(Cc3ccccc3)CC1C(c1cccc([N+](=O)[O-])c1)=NO2 (configuration not stated), the Potency was inconclusive: 1.65 µM [inhibitor, partial curve]. With COc1ccccc1NC(=O)CSc1nnc(Cn2nnc(-c3ccccc3)n2)n1-c1ccccc1 the Potency was active: 7.38 µM. For CC(C)OC(=O)/C(=C/c1ccco1)c1ccccc1, the “activity change, negative = inhibition” value was inactive: -3.72%. With CN(C)c1cccc(-c2nnc(SCCCC#N)o2)c1 the Potency was inconclusive: 0.104 µM [inhibitor, full curve, poor fit]. For O=C(CN1C(=O)NC(Cc2c[nH]c3ccccc23)C1=O)Nc1ccccc1Br (configuration not stated), the Potency was inconclusive: 13.1 µM [inhibitor, single point]. In the case of Cc1ccc(-c2nc3ccccc3c(=O)n2CCCN2CCOCC2)cc1, the Potency is reported as inconclusive: 4.15 µM [inhibitor, single point]. With N/C(CCN1CCCCC1)=N/O the Potency was inconclusive: 14.7 µM [inhibitor, single point]. With Cc1cccc(C)c1NC(=O)c1c(C)nn(-c2ccccc2)c1Cl the Potency was inconclusive: 5.86 µM [inhibitor, partial curve, poor fit]. In the case of CCCCOc1ccc(-c2c(C#N)c(N)nc(SCC(N)=O)c2C#N)cc1, the Potency is reported as inconclusive: 18.5 µM [inhibitor, single point]. With Cc1ccccc1C(=O)Oc1cc(N)n(S(C)(=O)=O)n1 the Potency was inconclusive: 3.7 µM [inhibitor, full curve, poor fit].
